Source: PubChem BioAssay AID504467 (National Center for Advancing Translational Sciences (NCATS), 2011)
In all, about 330,000 compounds went through this assay and about 7,700 (2.3%) were called active. This list was built around the results that the source calls inconclusive (neither active nor inactive); the mix of calls is not that of the screen. Calls follow the shape of the dose curve; as a rule, active = well fitted inhibition curve with a large enough effect; inconclusive = small, poorly fitted or top-dose-only effect, or effect the other way; inactive = flat fitted curve, though single readings scatter. Potencies beside an inconclusive call are fits to weak or partial responses and may not hold up.

Assay: qHTS screen for small molecules that inhibit ELG1-dependent DNA repair in human embryonic kidney (HEK293T) cells expressing luciferase-tagged ELG1; also: nearly all actives have a fitted effect of over 55% in size
Conditions: HEK293T ELG1-luciferase reporter, luminescence, 16 h, DNA damage induced by 5-fluorouridine; series mostly up to 46.1 µM
Procedure, shortened: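 Reporter activity after DNA damage by 5-fluorouridine is monitored. Compound-treated cells incubate 16 hr at 37 °C, then ONE-Glo is added for 30 min before luminescence reading.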
Potency is read from the fitted curve at half-maximal effect.

SMILES	Potency
O=C(CS(=O)(=O)c1ccccc1)Nc1nccs1	inactive
Cc1cccc(NC(=O)N2CCCCCC2)c1C	inconclusive: 29.1 µM [activator, single point]
O=C(CN1CCN(c2ccc(Cl)cc2)CC1)NCc1cccs1	inconclusive: 18.3 µM [inhibitor, single point]
COc1cc(OC)c(C(=O)OCC(=O)Nc2ccc(N3CCOCC3)cc2)cc1OC	inconclusive: 29.1 µM [inhibitor, single point]
COc1cc(C(Nc2ccc3c(c2)OCO3)C(=O)NC2CCCCC2)cc(OC)c1OC (stereo not given)	inconclusive: 11.2 µM [inhibitor, single point]
CC(C)(C)c1ccc(S(=O)(=O)CCc2ccccn2)cc1	inconclusive: 18.4 µM [activator, partial curve]
O=C1CC(c2ccccc2)CN1C(=O)c1cncc(Br)c1 (stereo not given)	inactive
CC(C)CCNc1ncnc2c1nnn2Cc1ccccc1Cl	inactive
O=C(NN=C1CCCC1)c1cc(-c2ccc(F)cc2)nc2ccccc12	inconclusive: 29.1 µM [inhibitor, single point]
CCCCOc1ccc(-c2cc(C(=O)NNC(=S)NCC)c3ccccc3n2)cc1	inconclusive: 0.411 µM [activator, full curve]
O=C(COc1ccccc1[N+](=O)[O-])NNC(=O)Nc1cccc2ccccc12	inconclusive: 6.51 µM [inhibitor, single point]
CCCCC(=O)Nc1ccc(N2CCN(S(C)(=O)=O)CC2)cc1	inconclusive: 3.66 µM [activator, single point]
O=C(NNC(=O)c1ccc2ccccc2c1O)c1cccs1	inconclusive: 23.1 µM [activator, partial curve, poor fit]
O=C(Nc1nc(-c2ccco2)c(-c2ccco2)s1)c1ccc(F)cc1F	inconclusive: 16.4 µM [activator, partial curve]
C=C(C)CC1(NC(C)c2ccccc2)CCCCC1 (stereo not given)	inactive
CCCC(=O)c1ccc(N2CCN(S(=O)(=O)c3ccccc3)CC2)c(F)c1	inconclusive: 12.6 µM [inhibitor, partial curve, poor fit]
COc1cc(/C=C/C(=O)OCc2c(C)noc2C)ccc1OC(F)F	inconclusive: 29.1 µM [inhibitor, single point]
S=C(NCc1ccccc1)Nc1cccc2cnccc12	active: 2.06 µM
CC12CCC3c4ccc(O)cc4CCC3C1CCC2=O (stereo not given)	inactive
C=CCn1c(SCCOc2ccc(OC)cc2)nnc1C(NC(=O)c1ccc(OC)cc1)C(C)C (stereo not given)	inconclusive: 18.4 µM [inhibitor, single point]
COc1cc2cc(C)c3nnc(SCC(=O)Nc4cc(C)on4)n3c2cc1OC	inconclusive: 0.651 µM [inhibitor, partial curve, poor fit]
Cn1c(=O)c2c(SCC(=O)N3CCN(c4ccccc4)CC3)nc(C3CC3)nc2n(C)c1=O	inconclusive: 3.26 µM [inhibitor, partial curve, poor fit]
CC(=O)N[C@@H](Cc1c[nH]c2ccccc12)C(=O)OCc1cc(C(F)(F)F)cc(C(F)(F)F)c1	inactive

Individual results from the entries so far.
For Potency, CCCCC(=O)Nc1ccc(N2CCN(S(C)(=O)=O)CC2)cc1 shows inconclusive: 3.66 µM [activator, single point]
For Potency, CC(=O)N[C@@H](Cc1c[nH]c2ccccc12)C(=O)OCc1cc(C(F)(F)F)cc(C(F)(F)F)c1 shows inactive
For Potency, O=C(CS(=O)(=O)c1ccccc1)Nc1nccs1 shows inactive

Next structures.

SMILES	Potency
CC(C)Cn1c(=S)[nH]c2cc(Cl)ccc21	inactive
CCN(c1ccccc1)S(=O)(=O)c1cc(NC(=O)COC(=O)C2CC2)ccc1Cl	inconclusive: 0.0046 µM [inhibitor, full curve, poor fit]
CCN(CC)C(=O)CSc1nc2ccccc2c(=O)n1CC	inactive
Cc1ccc(C(=O)NCCc2ccc(F)cc2)s1	inconclusive: 4.11 µM [activator, full curve]
Cc1cc(NC(=O)CS(=O)(=O)c2cn(Cc3ccccc3Cl)c3ccccc23)no1	inconclusive: 16.4 µM [inhibitor, single point]
CCOC(=O)C1CCN(S(=O)(=O)c2ccc(Br)c(OCC)c2)CC1	inconclusive: 18.4 µM [inhibitor, single point]
C=CCn1c(O)c(N=NC(=O)CNC(=O)/C=C/c2ccc(OC)cc2)c2ccccc21	inconclusive: 8.2 µM [inhibitor, partial curve]
COc1ccc(C2(C)NC(=O)N(CC(=O)Nc3c(C)n(C)n(-c4ccccc4)c3=O)C2=O)cc1 (stereo not given)	inconclusive: 18.3 µM [activator, partial curve, poor fit]
CSc1ccccc1OCc1cc(C(=O)NCCC2CCCCO2)no1 (stereo not given)	inconclusive: 16.4 µM [activator, single point]
CC(C)COc1cccc(C(=O)NC(=S)Nc2cccc(NC(=O)c3ccccc3Cl)c2)c1	inactive
Cc1ccc(C(=O)C(C)OC(=O)C2CCN(c3ccc(C(F)(F)F)cn3)CC2)cc1C (stereo not given)	inactive
CCOC(=O)c1ccc(NC(=O)NCCN2CCCCC2)cc1	inactive
CC(C)c1nc(SCC(=O)c2c[nH]c3ccccc23)n[nH]1	inactive
CC1CCN(C(=O)COc2cccc3c2CCN(Cc2ccccc2)C3=O)CC1	inconclusive: 29.1 µM [inhibitor, single point]
CCN(C(=O)CSc1nnc(NC2CCCCC2)s1)C1CCS(=O)(=O)C1 (stereo not given)	inactive
O=C1C=C(c2ccc(F)c(Cl)c2)C[C@@H](c2ccc(F)cc2)C1	inactive
CC1CCN(c2ccc(NC(=S)NC(=O)c3ccco3)cc2)CC1	inconclusive: 13 µM [activator, partial curve]
N#CC1=C(SCc2ccccc2)NC(=O)C(C#N)C12CCCC2 (stereo not given)	active: 14.6 µM
COc1ccc(S(=O)(=O)Nc2cccc3c2O[C@H](CN(C)C(=O)NC(C)C)[C@@H](C)CN([C@H](C)CO)C3=O)cc1	inactive
Cc1cccc(NC(=O)CN(C)C(=O)c2ccc(N3CCCCCC3)c([N+](=O)[O-])c2)c1C	inconclusive: 32.6 µM [inhibitor, single point]
Cc1ccc(NC(=O)c2cccc3cccnc23)cc1	inconclusive: 20.6 µM [activator, partial curve]
Cc1nc2n(n1)C(c1ccccc1)C1=C(CC(c3ccco3)CC1=O)N2 (stereo not given)	inconclusive: 5.8 µM [inhibitor, single point]
